Assay results published in paper PMC10279885.
Results are given in words; binding and its absence hold for the method and conditions named. Binding seen in cells or lysates may run through a third protein. Some binding calls cover weakened binding; strength is not graded here. For some assays here: Sequences can lack the tags named with a protein.

B1: NAI2 (wild type), expressed as NAI2:HA and as NAI2:GFP (protein, UniProt Q9LSB4 25-772)
chain: QDEGTGSLSTLDLIEHEYQTSVNSLQGNEAVDQTETSGQKNSTVSDNNTISLSLSEEPALETLKESVDTSAELGAVTDEVDKPSSMLDHIELEFEAHINELKEAGSDGINKVEESKDDEEAARRHKMLEAIEREFEAAHAGFEQLKTDDSAQGLDDEQSAKRQSMLDEIERDFEAATKGLEQLKADDLTGINDEEHAAKRQKMLEEIEREFEEATKGLEELRHSTSSTDDEAQSAKRQNMLDEIEREFEAATSGLKELKINAHTVKDDVDDKEQDAKRQSMLDAIEREFEAVTESFKQLEDIADNKAEGDDESAKRQSMLDEIEREFEAATNSLKQLNLDDFSEGDDSAESARRNSMLEAIEREFEAATKGLEELKANDSTGDKDDDEHVARRKIMLEAIEREFEAATKGLEELKNESEQAENKRNSMLEAFEREFEAATNAKANGENSAKNPSTISTTVQKSSGGYNAGLEGLLKPADGVCGCFNKDKDGLQADTDSSINIAEILAEESKLQGSGTSRLTTSLNNLVDTHRKETSSKVGSVLGSSSSVTSTTSESAATSESIESLKQTLRKLRGLSARDLVNHPNFDAIIAAGTRYEVLSSASIGYISLLAKYKTVIKEGLEASQRVQIAQTRAKLLKETAMEKQRTVDSVFAAAKTTAQRGDALHIRIVAIKKLLAKLEAEKVDVDSKFTSLTTSLSELLKEASQAYEEYHEAVHKAKDEQAAEEFAVETTKRAEHIWVEFLSSLN
B2: NAI2 (full length), expressed as NAI2:NV and as NAI2:CV for BiFC (protein, UniProt Q9LSB4 25-772)
chain: B1 chain

Assays:
[1] = biological target: NAI2 (wild type), expressed as NAI2:HA and as NAI2:GFP (Arabidopsis thaliana) (UniProt Q9LSB4); assay: co-IP; N. benthamiana leaf extracts 5 d after agro-infiltration; IP buffer 50 mM Tris-HCl pH 7.5, 150 mM NaCl, 0.1% Triton X-100; anti-GFP antibody overnight at 4 °C, protein-A beads; western blot with anti-HA and anti-GFP
[2] = biological target: NAI2 (full length), expressed as NAI2:NV and as NAI2:CV for BiFC (Arabidopsis thaliana) (UniProt Q9LSB4); assay: split reporter; BiFC with NV and CV fragments of Venus in N. benthamiana leaves, confocal microscopy 5 d after agro-infiltration

Binder | binding [1] | binding [2]
B1 | binds | –
B2 | – | binds
